Experimental data published in article PMC7393493.

Protein sequences, listed by entry. Tags and fused reporters are not part of them. Lines headed by an entry give the natural chain unless they say otherwise; changes in a name come on top.
UniProt Q8IZW8: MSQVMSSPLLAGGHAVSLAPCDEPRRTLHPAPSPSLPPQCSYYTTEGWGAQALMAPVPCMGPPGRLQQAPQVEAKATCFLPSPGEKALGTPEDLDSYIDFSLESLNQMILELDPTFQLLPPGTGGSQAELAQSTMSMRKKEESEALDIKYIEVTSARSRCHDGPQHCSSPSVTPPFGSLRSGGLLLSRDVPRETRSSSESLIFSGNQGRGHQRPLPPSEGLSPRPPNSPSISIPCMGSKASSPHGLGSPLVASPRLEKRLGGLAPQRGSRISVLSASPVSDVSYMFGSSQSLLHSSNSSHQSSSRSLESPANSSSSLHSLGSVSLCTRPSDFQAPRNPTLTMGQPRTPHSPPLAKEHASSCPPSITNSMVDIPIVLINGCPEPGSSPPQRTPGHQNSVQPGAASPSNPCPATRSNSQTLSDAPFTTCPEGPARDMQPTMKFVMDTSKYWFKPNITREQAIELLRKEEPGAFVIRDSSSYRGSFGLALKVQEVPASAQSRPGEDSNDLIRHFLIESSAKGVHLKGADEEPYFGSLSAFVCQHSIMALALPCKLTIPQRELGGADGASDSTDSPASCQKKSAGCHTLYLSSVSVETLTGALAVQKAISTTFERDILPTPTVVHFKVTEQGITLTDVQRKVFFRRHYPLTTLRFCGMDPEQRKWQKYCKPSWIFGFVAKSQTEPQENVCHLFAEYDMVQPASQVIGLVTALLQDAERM

Biological target: EGFR (human (endogenous in KYSE150 and KYSE510)) (UniProt P00533)
Experiment: co-IP; KYSE150 and KYSE510 cell lysates, precleared with protein G-agarose (4 h, 4 °C); anti-EGFR antibody (Abcam, ab52894) overnight at 4 °C, protein G-agarose overnight at 4 °C; western blotting of the immunoprecipitates

TNS4 (from UniProt Q8IZW8)
binding: binds

No constants are given. Whether binding was seen depends on the method and setting. Binding seen in cells or lysates may run through a third protein. Binding can be weak; no strength is given.
